Sequences of proteins named here, by UniProt entry; tags and fusion partners are left off.
UniProt P09874, whole entry: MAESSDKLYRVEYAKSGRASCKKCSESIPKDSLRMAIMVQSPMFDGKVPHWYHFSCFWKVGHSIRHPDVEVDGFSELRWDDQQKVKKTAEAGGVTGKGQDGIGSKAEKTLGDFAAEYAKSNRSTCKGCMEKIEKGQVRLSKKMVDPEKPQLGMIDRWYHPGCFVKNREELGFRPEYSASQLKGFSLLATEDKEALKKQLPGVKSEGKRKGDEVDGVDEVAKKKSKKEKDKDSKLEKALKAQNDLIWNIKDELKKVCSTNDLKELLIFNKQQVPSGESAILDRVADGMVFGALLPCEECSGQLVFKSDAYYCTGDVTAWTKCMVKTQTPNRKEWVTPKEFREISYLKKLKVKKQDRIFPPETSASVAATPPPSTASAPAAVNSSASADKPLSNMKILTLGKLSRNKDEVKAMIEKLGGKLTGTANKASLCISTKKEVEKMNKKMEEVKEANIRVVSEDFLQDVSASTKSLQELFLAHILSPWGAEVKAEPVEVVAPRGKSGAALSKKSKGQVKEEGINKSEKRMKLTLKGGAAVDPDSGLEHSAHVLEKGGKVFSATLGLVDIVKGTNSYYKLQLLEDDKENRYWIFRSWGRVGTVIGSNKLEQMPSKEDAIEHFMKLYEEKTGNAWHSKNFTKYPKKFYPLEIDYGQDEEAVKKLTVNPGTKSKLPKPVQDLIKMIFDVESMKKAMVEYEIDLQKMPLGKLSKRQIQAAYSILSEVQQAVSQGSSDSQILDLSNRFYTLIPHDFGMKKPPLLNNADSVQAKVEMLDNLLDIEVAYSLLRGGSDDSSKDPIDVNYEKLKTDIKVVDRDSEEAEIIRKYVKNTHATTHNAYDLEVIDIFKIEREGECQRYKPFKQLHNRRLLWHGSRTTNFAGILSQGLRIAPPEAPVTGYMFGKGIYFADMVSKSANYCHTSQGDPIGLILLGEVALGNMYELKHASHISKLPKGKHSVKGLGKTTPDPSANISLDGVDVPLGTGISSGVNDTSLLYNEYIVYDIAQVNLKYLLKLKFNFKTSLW

In PMC7854685, “Histone Parylation factor 1 contributes to the inhibition of PARP1 by cancer drugs” (Nature Communications, 2021):

Target: PARP1 (Homo sapiens, UniProt P09874)
Test: Release of fluorescently labeled p18mer DNA (fluorescence polarization) upon NAD+ addition, KI determination for PARPi, with or without HPF1;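 also: PARP1 bound to fluorescein-tagged DNA and preincubated with inhibitor, then high NAD+ added, drop in fluorescence polarization tracked as the DNA dissociates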
Format: biochemical
Details: PARP1, +HPF1, single experiment

COC1CCN(C(=O)c2cc(Cc3n[nH]c(=O)c4ccccc34)ccc2F)CC1
koff (est): ≥ 0.00068 s-1, ≥ 0.00058 s-1, ≥ 0.0004 s-1

A number of entries come with more than one value. The list is limited to them. An entry can have further records. The records of an entry differ for a reason that is not stated; they may come from other doses, times, organisms or constructs than stated.
